# Data as given in paper PMC7793253, “CEP290 is essential for the initiation of ciliary transition zone assembly” (PLoS Biology, 2020).
# Amino acid sequences for entries named in this document (tags omitted).
# UniProt O18338: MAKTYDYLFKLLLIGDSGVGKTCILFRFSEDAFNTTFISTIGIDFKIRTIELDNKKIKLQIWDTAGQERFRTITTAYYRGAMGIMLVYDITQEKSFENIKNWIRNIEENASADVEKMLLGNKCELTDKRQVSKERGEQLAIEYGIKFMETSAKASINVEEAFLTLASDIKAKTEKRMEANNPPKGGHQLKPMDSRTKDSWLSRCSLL
# No constants are given. Whether binding was seen depends on the method and setting. For some of these results: In cells and extracts the contact can be indirect. Some binding calls cover weakened binding; strength is not graded here. For some of these results: Where a sequence is shown, tags or fusion partners need not be part of it.
# T1: DZIP1-GFP (Drosophila) (UniProt Q9VC70)
# T1 sequence: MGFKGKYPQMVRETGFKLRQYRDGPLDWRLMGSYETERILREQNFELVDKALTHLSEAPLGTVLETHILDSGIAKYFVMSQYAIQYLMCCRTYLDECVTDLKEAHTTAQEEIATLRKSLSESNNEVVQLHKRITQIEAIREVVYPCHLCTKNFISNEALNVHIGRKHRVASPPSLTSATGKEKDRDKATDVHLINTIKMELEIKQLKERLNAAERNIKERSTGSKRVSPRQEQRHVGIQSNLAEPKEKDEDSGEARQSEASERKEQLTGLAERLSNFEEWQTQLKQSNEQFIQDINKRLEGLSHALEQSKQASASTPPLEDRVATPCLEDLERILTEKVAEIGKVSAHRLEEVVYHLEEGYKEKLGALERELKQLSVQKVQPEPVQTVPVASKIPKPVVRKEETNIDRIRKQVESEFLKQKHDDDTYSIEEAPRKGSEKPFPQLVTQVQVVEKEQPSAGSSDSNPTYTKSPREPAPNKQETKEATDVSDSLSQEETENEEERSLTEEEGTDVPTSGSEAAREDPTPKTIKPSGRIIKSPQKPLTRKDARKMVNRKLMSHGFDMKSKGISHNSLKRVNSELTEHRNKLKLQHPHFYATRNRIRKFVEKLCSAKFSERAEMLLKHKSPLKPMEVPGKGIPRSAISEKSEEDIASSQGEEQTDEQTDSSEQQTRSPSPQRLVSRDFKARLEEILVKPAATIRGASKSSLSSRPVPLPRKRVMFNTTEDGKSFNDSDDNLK
# T2: DAZ interacting zinc finger protein 1 (DZIP1), yeast two-hybrid bait in pGBKT7 (Drosophila) (UniProt Q9VC70)
# T2 sequence: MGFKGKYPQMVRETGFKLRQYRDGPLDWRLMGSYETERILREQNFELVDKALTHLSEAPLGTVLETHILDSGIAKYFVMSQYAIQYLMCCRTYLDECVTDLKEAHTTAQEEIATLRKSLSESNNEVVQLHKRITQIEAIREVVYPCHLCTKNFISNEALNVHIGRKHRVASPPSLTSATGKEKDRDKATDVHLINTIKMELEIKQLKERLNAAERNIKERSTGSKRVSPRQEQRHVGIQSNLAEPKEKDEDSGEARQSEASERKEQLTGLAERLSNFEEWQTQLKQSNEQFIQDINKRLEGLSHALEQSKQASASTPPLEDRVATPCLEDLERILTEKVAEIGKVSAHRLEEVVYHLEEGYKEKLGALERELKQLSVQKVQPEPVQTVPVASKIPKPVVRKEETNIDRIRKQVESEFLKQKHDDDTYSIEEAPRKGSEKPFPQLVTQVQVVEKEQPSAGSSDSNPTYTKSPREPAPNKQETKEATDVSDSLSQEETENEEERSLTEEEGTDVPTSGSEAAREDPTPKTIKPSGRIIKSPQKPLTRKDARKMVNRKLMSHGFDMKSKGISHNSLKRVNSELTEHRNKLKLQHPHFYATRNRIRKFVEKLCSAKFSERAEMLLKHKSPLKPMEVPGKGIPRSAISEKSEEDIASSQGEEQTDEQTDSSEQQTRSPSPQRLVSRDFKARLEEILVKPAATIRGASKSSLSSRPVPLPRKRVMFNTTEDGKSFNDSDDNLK
# T3: CEP290-N-GFP (aa 1–878) (Drosophila) (UniProt Q9W0M1)
# T3 sequence: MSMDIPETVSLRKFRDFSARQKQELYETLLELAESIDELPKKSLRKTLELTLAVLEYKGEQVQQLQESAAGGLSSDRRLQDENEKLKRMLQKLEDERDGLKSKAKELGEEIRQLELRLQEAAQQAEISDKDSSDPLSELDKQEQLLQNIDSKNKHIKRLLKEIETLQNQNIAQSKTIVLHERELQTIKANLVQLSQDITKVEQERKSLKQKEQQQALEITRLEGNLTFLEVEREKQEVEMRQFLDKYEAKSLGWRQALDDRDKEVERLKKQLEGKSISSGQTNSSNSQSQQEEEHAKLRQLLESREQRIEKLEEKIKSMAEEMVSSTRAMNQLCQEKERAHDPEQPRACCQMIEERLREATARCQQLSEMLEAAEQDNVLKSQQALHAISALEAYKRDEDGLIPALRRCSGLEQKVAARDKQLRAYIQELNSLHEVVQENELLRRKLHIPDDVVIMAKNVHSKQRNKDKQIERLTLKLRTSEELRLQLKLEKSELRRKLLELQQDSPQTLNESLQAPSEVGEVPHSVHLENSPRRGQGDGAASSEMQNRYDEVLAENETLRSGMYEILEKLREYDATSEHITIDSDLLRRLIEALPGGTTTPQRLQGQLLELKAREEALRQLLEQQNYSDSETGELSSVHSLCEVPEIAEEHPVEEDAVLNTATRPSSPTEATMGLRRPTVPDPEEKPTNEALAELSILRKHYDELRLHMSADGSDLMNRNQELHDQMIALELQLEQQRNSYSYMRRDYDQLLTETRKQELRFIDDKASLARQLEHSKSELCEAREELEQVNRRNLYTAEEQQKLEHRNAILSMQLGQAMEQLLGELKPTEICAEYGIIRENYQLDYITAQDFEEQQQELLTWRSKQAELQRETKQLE
# B1: CEP290-N (aa 1–887), yeast two-hybrid prey in pGADT7 (domain or fragment, UniProt Q9W0M1 1-887)
# chain: MSMDIPETVSLRKFRDFSARQKQELYETLLELAESIDELPKKSLRKTLELTLAVLEYKGEQVQQLQESAAGGLSSDRRLQDENEKLKRMLQKLEDERDGLKSKAKELGEEIRQLELRLQEAAQQAEISDKDSSDPLSELDKQEQLLQNIDSKNKHIKRLLKEIETLQNQNIAQSKTIVLHERELQTIKANLVQLSQDITKVEQERKSLKQKEQQQALEITRLEGNLTFLEVEREKQEVEMRQFLDKYEAKSLGWRQALDDRDKEVERLKKQLEGKSISSGQTNSSNSQSQQEEEHAKLRQLLESREQRIEKLEEKIKSMAEEMVSSTRAMNQLCQEKERAHDPEQPRACCQMIEERLREATARCQQLSEMLEAAEQDNVLKSQQALHAISALEAYKRDEDGLIPALRRCSGLEQKVAARDKQLRAYIQELNSLHEVVQENELLRRKLHIPDDVVIMAKNVHSKQRNKDKQIERLTLKLRTSEELRLQLKLEKSELRRKLLELQQDSPQTLNESLQAPSEVGEVPHSVHLENSPRRGQGDGAASSEMQNRYDEVLAENETLRSGMYEILEKLREYDATSEHITIDSDLLRRLIEALPGGTTTPQRLQGQLLELKAREEALRQLLEQQNYSDSETGELSSVHSLCEVPEIAEEHPVEEDAVLNTATRPSSPTEATMGLRRPTVPDPEEKPTNEALAELSILRKHYDELRLHMSADGSDLMNRNQELHDQMIALELQLEQQRNSYSYMRRDYDQLLTETRKQELRFIDDKASLARQLEHSKSELCEAREELEQVNRRNLYTAEEQQKLEHRNAILSMQLGQAMEQLLGELKPTEICAEYGIIRENYQLDYITAQDFEEQQQELLTWRSKQAELQRETKQLEGLLHVANEQ
# B2: DZIP1-HA (protein, UniProt Q9VC70 1-737)
# chain: MGFKGKYPQMVRETGFKLRQYRDGPLDWRLMGSYETERILREQNFELVDKALTHLSEAPLGTVLETHILDSGIAKYFVMSQYAIQYLMCCRTYLDECVTDLKEAHTTAQEEIATLRKSLSESNNEVVQLHKRITQIEAIREVVYPCHLCTKNFISNEALNVHIGRKHRVASPPSLTSATGKEKDRDKATDVHLINTIKMELEIKQLKERLNAAERNIKERSTGSKRVSPRQEQRHVGIQSNLAEPKEKDEDSGEARQSEASERKEQLTGLAERLSNFEEWQTQLKQSNEQFIQDINKRLEGLSHALEQSKQASASTPPLEDRVATPCLEDLERILTEKVAEIGKVSAHRLEEVVYHLEEGYKEKLGALERELKQLSVQKVQPEPVQTVPVASKIPKPVVRKEETNIDRIRKQVESEFLKQKHDDDTYSIEEAPRKGSEKPFPQLVTQVQVVEKEQPSAGSSDSNPTYTKSPREPAPNKQETKEATDVSDSLSQEETENEEERSLTEEEGTDVPTSGSEAAREDPTPKTIKPSGRIIKSPQKPLTRKDARKMVNRKLMSHGFDMKSKGISHNSLKRVNSELTEHRNKLKLQHPHFYATRNRIRKFVEKLCSAKFSERAEMLLKHKSPLKPMEVPGKGIPRSAISEKSEEDIASSQGEEQTDEQTDSSEQQTRSPSPQRLVSRDFKARLEEILVKPAATIRGASKSSLSSRPVPLPRKRVMFNTTEDGKSFNDSDDNLK
# B3: CEP290-ΔN (aa 888–1978), yeast two-hybrid prey in pGADT7 (domain or fragment, UniProt Q9W0M1 888-1978)
# chain: IHSQQRLLNEITDNHINLRHLVADLQSSSDEKLMLAKVQRDLDSVKAECSRLETEREKLQLKADCLQTQLEASELSLKQTQQDFQQERTNSDIKHKFLQHSLFMLKDKYAKFTPLVFLTNFVFAYQKFQRRLEEEQVQQRHRDHTALIDEVTAVVQAKIGLNEESSQQLVKLIKSETQTRLLEQRCEILQAKQEELVRELGELRMSQATDTEHWSTIQALFGEGEPRSQLKVDAETNTDAVAPNLAMRRAVQLIDRESSPIGSPLRKHPHLDTATQTLEAQVEFSETAVQTNGILSQQNQAVQTADAVEDNRRDSRAELQKMQETLQEANQRIEILGKQLEASRSESRESASPQGGVVEKTILSFHTLLLEKDQSIQKYQDLLQTERDQSQQALSKQVAENESLRATVNNLNFNIKTKDAEIQGLKEKLRQKPEVPVERNPSTDSRSSSSSDSSVNELTDEKIEELFESSSVERPPQEELEVPVEAGPENIVTEEPEGEEEKQDTEELKEVPTLHKQIKDLKDKLEYSERSLKTREEEVDILKEKLKLCQEREKSVESTVNPELDQLRIFLDEKDKHIKDLMDTLKNFHDDQQRYIKDTSNFSEDQIAKLAADLNRTEATNKIYHTQMEALRRQLANVTQREKQARDLSQSLRQQLLKRPVVSIKTELNARVKNENQLKRIQQLELDLDEARGQLQRQQTLLEAKRTRSANEVQLWEKQKRYQQQAEKTKARLEETELALEKTRALLQAARTTIARLEKDKQILESKLGRNGPPSNSSGGNNLKCCRTPSCPNLQHVGVSKFAPSPSESPETYTGPSSECSSPAHHHTQIFDQSQLDLIEALKSRIELQQRKIIAMELEGRGSNALTTELEKLQERCQAIEAQNIRLEARNLQLQLDSDLLRQGDSSDRLQKRIKHLEDYIMALKEEMARNESRRELGSGLKVSTNQGQSAEQTILSLRNLVEKLRSENKFLKDGRRSTESRSSMDSTPAEAARLQQQHAEALEKISALQQELQKRTTKCSQCGGRSKDAANEELKFIKEQLVKKTQLLQKAKVLLTRAAAKEKVLREQLALWKRKCSELQNVPVIDEISE
# Assays:
# DZIP1-GFP (Drosophila) = molecular target: T1, DZIP1-GFP (Drosophila); test: co-IP; Drosophila S2 cells transiently transfected, 48 h; lysis in 10 mM Tris pH 7.5, 150 mM NaCl, 0.5 mM EDTA, 0.5% NP-40; anti-GFP nanobody agarose (GFP-trap) beads, 1 h at 4°C; blot with anti-GFP and anti-HA
# [1] = molecular target: T2, DAZ interacting zinc finger protein 1 (DZIP1), yeast two-hybrid bait in pGBKT7 (Drosophila); test: two-hybrid; DZIP1 in pGBKT7, CEP290 fragments in pGADT7, yeast strain AH109; colonies from SD-Leu-Trp tested on SD-Ade-Leu-Trp-His plates, 5 d at 30°C
# [2] = molecular target: T3, CEP290-N-GFP (aa 1–878) (Drosophila); test: co-IP; Drosophila S2 cells transiently transfected, 48 h; lysis in 10 mM Tris pH 7.5, 150 mM NaCl, 0.5 mM EDTA, 0.5% NP-40; anti-GFP nanobody agarose (GFP-trap) beads, 1 h at 4°C; blot with anti-GFP and anti-HA
Molecule,binding [1],also measured
Rab8-HA (from UniProt O18338 1-207),–,binding (DZIP1-GFP (Drosophila)): binds
B1,binds,–
B2,–,binding [2]: binds
B3,no binding,–
